Measurements reported in the supplement of paper PMC10849652.
Some of the results follow.

Protein sequences, listed by entry. Tags and fused reporters are not part of them. Lines headed by an entry give the natural chain unless they say otherwise; changes in a name come on top.
UniProt Q5XPI4: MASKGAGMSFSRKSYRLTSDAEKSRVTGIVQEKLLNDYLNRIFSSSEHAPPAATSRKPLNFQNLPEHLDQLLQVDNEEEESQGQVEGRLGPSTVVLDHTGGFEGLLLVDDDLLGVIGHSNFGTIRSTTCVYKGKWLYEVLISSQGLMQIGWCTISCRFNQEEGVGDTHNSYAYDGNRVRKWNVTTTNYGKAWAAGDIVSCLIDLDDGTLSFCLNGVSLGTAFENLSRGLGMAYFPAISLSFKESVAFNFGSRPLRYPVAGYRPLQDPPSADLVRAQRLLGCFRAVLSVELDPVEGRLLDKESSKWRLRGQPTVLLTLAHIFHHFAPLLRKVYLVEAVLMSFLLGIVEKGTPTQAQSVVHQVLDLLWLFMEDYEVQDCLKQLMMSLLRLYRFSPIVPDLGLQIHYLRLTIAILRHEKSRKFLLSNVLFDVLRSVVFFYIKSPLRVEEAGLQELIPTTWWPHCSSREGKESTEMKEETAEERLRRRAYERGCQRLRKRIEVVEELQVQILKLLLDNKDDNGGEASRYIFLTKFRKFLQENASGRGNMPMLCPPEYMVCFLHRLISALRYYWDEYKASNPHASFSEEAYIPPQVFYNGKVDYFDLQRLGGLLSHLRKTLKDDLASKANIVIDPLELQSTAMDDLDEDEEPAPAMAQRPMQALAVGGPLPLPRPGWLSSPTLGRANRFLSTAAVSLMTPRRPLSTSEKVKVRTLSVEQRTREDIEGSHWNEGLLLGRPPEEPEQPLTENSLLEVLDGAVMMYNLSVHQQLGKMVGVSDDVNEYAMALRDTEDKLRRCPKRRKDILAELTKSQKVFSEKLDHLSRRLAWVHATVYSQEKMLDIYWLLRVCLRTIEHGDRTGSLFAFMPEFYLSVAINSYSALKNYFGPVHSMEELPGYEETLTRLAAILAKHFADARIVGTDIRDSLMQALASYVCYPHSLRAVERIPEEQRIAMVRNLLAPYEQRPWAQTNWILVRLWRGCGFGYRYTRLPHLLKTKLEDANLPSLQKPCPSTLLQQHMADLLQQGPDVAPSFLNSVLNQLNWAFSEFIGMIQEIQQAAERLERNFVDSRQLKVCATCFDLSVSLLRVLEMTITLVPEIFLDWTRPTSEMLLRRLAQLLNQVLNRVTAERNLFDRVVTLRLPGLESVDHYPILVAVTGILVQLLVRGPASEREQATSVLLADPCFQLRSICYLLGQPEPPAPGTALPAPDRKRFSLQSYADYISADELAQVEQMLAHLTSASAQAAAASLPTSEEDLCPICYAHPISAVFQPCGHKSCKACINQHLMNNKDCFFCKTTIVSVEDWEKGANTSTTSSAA
UniProt Q96DM3: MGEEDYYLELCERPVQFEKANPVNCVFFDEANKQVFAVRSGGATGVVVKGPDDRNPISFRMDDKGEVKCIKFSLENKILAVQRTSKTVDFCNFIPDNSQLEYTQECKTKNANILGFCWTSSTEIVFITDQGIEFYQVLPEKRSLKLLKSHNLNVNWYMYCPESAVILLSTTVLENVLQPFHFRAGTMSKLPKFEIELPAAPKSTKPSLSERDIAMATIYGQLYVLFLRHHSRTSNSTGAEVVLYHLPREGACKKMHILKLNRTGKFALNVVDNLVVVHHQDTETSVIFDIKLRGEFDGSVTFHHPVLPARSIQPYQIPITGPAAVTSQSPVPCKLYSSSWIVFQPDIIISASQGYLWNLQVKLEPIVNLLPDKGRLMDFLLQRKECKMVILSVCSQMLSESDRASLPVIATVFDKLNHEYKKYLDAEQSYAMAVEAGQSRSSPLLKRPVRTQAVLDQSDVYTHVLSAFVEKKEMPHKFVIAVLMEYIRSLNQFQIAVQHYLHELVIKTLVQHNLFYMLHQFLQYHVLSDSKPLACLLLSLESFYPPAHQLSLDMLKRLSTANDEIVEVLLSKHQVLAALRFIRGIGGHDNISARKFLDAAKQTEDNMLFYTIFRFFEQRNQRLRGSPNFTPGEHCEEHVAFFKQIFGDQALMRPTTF
UniProt O60942: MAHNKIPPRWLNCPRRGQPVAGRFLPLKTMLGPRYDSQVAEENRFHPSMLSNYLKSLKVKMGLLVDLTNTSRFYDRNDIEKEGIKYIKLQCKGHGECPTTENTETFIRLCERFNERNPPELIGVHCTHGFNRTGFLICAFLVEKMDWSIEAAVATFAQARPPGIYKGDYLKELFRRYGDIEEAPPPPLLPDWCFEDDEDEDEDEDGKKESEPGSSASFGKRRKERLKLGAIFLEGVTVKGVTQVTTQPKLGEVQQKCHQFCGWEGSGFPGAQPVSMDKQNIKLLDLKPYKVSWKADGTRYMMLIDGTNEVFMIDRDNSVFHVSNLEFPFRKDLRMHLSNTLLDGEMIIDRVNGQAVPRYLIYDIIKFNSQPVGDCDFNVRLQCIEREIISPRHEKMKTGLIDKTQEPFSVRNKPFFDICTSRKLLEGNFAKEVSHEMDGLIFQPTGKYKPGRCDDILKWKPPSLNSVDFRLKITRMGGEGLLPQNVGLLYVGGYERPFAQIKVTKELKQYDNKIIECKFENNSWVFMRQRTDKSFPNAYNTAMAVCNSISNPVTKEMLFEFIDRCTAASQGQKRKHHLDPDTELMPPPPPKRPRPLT
UniProt Q4ADV7: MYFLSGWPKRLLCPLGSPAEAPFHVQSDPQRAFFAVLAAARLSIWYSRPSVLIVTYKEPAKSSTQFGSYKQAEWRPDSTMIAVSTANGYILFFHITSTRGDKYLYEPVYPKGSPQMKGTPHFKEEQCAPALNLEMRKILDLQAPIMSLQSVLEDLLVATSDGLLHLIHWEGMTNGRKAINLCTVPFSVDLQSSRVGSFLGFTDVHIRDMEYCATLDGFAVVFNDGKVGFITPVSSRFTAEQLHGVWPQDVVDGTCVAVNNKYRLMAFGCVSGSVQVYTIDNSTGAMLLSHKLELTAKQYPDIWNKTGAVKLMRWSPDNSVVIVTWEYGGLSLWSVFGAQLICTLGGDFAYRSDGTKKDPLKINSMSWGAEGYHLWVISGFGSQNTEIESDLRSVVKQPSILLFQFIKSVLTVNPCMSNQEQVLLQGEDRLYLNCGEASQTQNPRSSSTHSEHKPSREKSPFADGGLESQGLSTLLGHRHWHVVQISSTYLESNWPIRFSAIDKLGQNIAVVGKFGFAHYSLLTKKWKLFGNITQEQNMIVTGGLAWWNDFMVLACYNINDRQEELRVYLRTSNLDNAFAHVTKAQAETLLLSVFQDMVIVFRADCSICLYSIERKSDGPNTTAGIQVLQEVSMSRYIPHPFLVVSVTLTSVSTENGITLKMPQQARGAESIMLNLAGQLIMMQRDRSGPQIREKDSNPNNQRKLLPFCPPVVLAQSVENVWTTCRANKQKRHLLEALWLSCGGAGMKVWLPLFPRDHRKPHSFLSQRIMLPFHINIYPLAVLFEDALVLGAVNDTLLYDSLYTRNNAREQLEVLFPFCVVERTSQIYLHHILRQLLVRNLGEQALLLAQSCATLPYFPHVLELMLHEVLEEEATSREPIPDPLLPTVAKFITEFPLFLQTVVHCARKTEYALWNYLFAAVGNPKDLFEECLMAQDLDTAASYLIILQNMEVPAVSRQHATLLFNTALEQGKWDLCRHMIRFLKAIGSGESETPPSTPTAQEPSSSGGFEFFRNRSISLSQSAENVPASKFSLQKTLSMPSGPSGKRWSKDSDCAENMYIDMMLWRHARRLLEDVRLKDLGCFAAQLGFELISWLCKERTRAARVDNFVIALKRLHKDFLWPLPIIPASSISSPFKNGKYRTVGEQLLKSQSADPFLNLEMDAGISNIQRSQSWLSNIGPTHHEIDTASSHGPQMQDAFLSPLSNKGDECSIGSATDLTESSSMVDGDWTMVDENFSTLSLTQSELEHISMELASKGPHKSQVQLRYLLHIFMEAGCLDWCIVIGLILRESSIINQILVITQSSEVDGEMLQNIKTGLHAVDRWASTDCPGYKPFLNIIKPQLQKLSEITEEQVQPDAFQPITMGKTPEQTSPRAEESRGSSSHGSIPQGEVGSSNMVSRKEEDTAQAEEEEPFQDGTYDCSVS
UniProt P08134, whole entry, looked up: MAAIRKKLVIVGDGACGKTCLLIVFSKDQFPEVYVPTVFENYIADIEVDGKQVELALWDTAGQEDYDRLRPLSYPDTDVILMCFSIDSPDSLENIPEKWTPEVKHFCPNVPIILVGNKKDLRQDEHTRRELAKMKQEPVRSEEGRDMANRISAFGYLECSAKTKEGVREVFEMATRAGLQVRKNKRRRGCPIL
UniProt Q5TBB1: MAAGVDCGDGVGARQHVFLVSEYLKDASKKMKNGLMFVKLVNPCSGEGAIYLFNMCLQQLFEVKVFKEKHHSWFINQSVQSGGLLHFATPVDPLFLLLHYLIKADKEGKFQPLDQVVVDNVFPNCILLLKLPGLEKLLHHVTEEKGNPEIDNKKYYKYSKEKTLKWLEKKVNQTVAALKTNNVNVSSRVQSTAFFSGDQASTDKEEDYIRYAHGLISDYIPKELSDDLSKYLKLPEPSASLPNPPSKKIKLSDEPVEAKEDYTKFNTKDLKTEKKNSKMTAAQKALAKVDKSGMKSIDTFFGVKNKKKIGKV
UniProt O75695: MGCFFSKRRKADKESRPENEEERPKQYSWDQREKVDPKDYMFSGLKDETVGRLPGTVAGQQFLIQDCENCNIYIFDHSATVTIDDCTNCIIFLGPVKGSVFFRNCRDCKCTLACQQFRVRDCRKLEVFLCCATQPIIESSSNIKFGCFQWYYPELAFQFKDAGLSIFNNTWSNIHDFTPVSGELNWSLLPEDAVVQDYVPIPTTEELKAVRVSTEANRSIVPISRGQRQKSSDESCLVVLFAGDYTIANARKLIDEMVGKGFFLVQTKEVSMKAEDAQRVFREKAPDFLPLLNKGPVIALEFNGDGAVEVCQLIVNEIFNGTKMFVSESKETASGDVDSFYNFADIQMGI
UniProt P61586, whole entry, looked up: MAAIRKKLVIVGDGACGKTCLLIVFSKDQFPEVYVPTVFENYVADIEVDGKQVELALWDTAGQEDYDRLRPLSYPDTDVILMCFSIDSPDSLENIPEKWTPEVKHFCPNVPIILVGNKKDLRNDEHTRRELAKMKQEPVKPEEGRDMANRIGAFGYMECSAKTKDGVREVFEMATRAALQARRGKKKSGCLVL
UniProt Q8WVD5: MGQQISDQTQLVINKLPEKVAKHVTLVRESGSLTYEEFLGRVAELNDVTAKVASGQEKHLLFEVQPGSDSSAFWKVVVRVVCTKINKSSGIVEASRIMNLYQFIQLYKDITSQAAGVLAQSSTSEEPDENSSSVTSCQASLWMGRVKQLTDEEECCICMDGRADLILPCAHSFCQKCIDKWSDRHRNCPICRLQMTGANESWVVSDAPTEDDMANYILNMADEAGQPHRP

How the values were obtained:
Test in all cases: log2 fold change, soluble protein after heating vs DMSO (PISA); higher = thermal stabilisation; K562 lysate, 10 uM; active = over 0.2 and 3.5 SD of the protein, either way, in both replicates (recomputed)
lapatinib = compound: CS(=O)(=O)CCNCc1ccc(-c2ccc3ncnc(Nc4ccc(OCc5cccc(F)c5)c(Cl)c4)c3c2)o1 [lapatinib]
How it was run: (§1)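 Dounce homogenisation of K562 pellets in PBS pH 7.4 with 1 mM MgCl2 produced a crude extract, used at 1 mg/mL protein. Exposure to 10 μM compound lasted 30 min, and aliquots were then heated for 3 min across 48°C-58°C, pooled and brought to 0.5% NP-40 at 4°C. The supernatant after 21,000xg for 90 min was quantified by TMTpro 16plex LC-MS/MS with channel sums equalised. Duplicate values are given as log-two fold change in thermal stability relative to solvent controls.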

pictilisib = compound: CS(=O)(=O)N1CCN(Cc2cc3nc(-c4cccc5[nH]ncc45)nc(N4CCOCC4)c3s2)CC1 [pictilisib]
How it was run: as §1

crizotinib = compound: C[C@@H](Oc1cc(-c2cnn(C3CCNCC3)c2)cnc1N)c1c(Cl)ccc(F)c1Cl [crizotinib]
How it was run: as §1

[1] = compound: C[C@H](C1=CC=C(C=C1)C(=O)NC2=C3C=CNC3=NC=C2)N
How it was run: as §1

duvelisib = compound: C[C@H](Nc1ncnc2nc[nH]c12)c1cc2cccc(Cl)c2c(=O)n1-c1ccccc1 [duvelisib]
How it was run: as §1

gandotinib = compound: Cc1cc(Nc2cc(CN3CCOCC3)c3nc(C)c(Cc4ccc(Cl)cc4F)n3n2)n[nH]1 [gandotinib]
How it was run: as §1

tozasertib = compound: Cc1cc(Nc2cc(N3CCN(C)CC3)nc(Sc3ccc(NC(=O)C4CC4)cc3)n2)n[nH]1 [tozasertib]
How it was run: as §1

doramapimod = compound: Cc1ccc(-n2nc(C(C)(C)C)cc2NC(=O)Nc2ccc(OCCN3CCOCC3)c3ccccc23)cc1 [doramapimod]
How it was run: as §1

bafetinib = compound: Cc1ccc(NC(=O)c2ccc(CN3CC[C@H](N(C)C)C3)c(C(F)(F)F)c2)cc1Nc1nccc(-c2cncnc2)n1 [bafetinib]
How it was run: as §1

[2] = compound: Cc1cccc(CC(=O)N2CCc3c2ccc(-c2cn(C)c4ncnc(N)c24)c3F)n1
How it was run: as §1

nilotinib = compound: Cc1cn(-c2cc(NC(=O)c3ccc(C)c(Nc4nccc(-c5cccnc5)n4)c3)cc(C(F)(F)F)c2)cn1 [nilotinib]
How it was run: as §1

[3] = compound: Cc1nc(Nc2n[nH]c3c2CN(C(=O)N[C@H](CN(C)C)c2ccccc2)C3(C)C)c2sccc2n1
How it was run: as §1

dasatinib = compound: Cc1nc(Nc2ncc(C(=O)Nc3c(C)cccc3Cl)s2)cc(N2CCN(CCO)CC2)n1 [dasatinib]
How it was run: as §1

[4] = compound: Cc1ncc(-c2ccnc(Nc3ccc(S(C)(=O)=O)cc3)n2)n1C(C)C
How it was run: as §1

[5] = compound: Cn1cc(-c2ccc3c(c2)CCN3C(=O)Cc2cccc(C(F)(F)F)c2)c2c(N)ncnc21
How it was run: as §1

quisinostat = compound: Cn1cc(CNCC2CCN(c3ncc(C(=O)NO)cn3)CC2)c2ccccc21 [quisinostat]
How it was run: as §1

tipifarnib = compound: Cn1cncc1[C@@](N)(c1ccc(Cl)cc1)c1ccc2c(c1)c(-c1cccc(Cl)c1)cc(=O)n2C [tipifarnib]
How it was run: as §1

[6] = compound: NC(=O)Nc1cc(-c2cccc(F)c2)sc1C(=O)N[C@H]1CCCNC1
How it was run: as §1

[7] = compound: NC(=O)c1cnc(N[C@@H]2CCCC[C@@H]2N)nc1Nc1cccc(-n2nccn2)c1
How it was run: as §1

[8] = compound: NC1(c2ccc(-c3nc4ccn5c(=O)[nH]nc5c4cc3-c3ccccc3)cc2)CCC1
How it was run: as §1

Measured: log2 fold change

RNF123 (UniProt Q5XPI4)
inactive: lapatinib -0.013 | pictilisib -0.029 | crizotinib -0.015 | [1] -0.04 | duvelisib -0.068 | gandotinib -0.122 | tozasertib 0.029 | doramapimod 0.039 | bafetinib -0.002 | [2] 0.011 | nilotinib 0.012 | [3] -0.013 | dasatinib -0.059 | [4] 0.022 | [5] 0.054 | quisinostat -0.046 | tipifarnib -0.006 | [6] 0.04 | [7] 0.019 | [8] 0.01

RPL11 (UniProt P62913)
inactive: lapatinib 0.024 | pictilisib 0.006 | crizotinib -0.044 | [1] -0.005 | duvelisib 0.086 | gandotinib -0.025 | tozasertib -0.025 | doramapimod 0.039 | bafetinib 0.009 | [2] 0.026 | nilotinib -0.011 | [3] 0.021 | dasatinib 0.004 | [4] 0.026 | [5] -0.022 | quisinostat -0.105 | tipifarnib -0.02 | [6] 0.001 | [7] 0.027 | [8] -0.03

RMC1 (UniProt Q96DM3)
inactive: lapatinib -0.036 | pictilisib -0.011 | crizotinib -0.013 | [1] -0.029 | duvelisib 0.024 | gandotinib -0.051 | tozasertib -0.056 | doramapimod 0.012 | bafetinib -0.062 | [2] 0.035 | nilotinib 0.027 | [3] 0.005 | dasatinib 0.008 | [4] -0.002 | [5] 0.003 | quisinostat -0.02 | tipifarnib -0.057 | [6] 0.035 | [7] -0.007 | [8] 0.036

RNGTT (UniProt O60942)
inactive: lapatinib 0.004 | pictilisib 0.082 | crizotinib -0.032 | [1] 0.038 | duvelisib -0.002 | gandotinib -0.079 | tozasertib 0.076 | doramapimod 0.055 | bafetinib 0.157 | [2] 0.022 | nilotinib 0.011 | [3] -0.01 | dasatinib 0.055 | [4] 0.009 | [5] 0.068 | quisinostat -0.049 | tipifarnib 0.018 | [6] 0.066 | [7] 0.01 | [8] -0.022

RPL30 (UniProt P62888)
inactive: lapatinib -0.004 | pictilisib -0.015 | crizotinib -0.017 | [1] -0.046 | duvelisib 0.007 | gandotinib 0.017 | tozasertib -0.02 | doramapimod 0.048 | bafetinib -0.032 | [2] 0.034 | nilotinib 0.014 | [3] -0.007 | dasatinib 0.01 | [4] -0.043 | [5] 0.006 | quisinostat -0.021 | tipifarnib 0.008 | [6] 0.005 | [7] -0.007 | [8] -0.003

RPL36 (UniProt Q9Y3U8)
inactive: lapatinib -0.022 | pictilisib -0.003 | crizotinib -0.026 | [1] -0.107 | duvelisib 0.013 | gandotinib 0.023 | tozasertib -0.073 | doramapimod 0.013 | bafetinib -0.005 | [2] 0.045 | nilotinib 0.056 | [3] -0.04 | dasatinib 0.009 | [4] -0.018 | [5] 0.014 | quisinostat -0.021 | tipifarnib -0.009 | [6] 0.02 | [7] 0.006 | [8] -0.033

RIC1 (UniProt Q4ADV7)
active: bafetinib 0.3
inactive: lapatinib 0.016 | pictilisib -0.02 | crizotinib -0.06 | [1] -0.032 | duvelisib -0.048 | gandotinib -0.092 | tozasertib 0.01 | doramapimod 0.026 | [2] 0.108 | nilotinib -0.069 | [3] 0.033 | dasatinib 0.001 | [4] 0.086 | [5] 0.008 | quisinostat -0.169 | tipifarnib 0.085 | [6] 0.097 | [7] -0.085 | [8] 0.002

RPL32 (UniProt P62910)
inactive: lapatinib -0.001 | pictilisib -0.014 | crizotinib 0.006 | [1] 0.073 | duvelisib 0.008 | gandotinib -0.026 | tozasertib -0.112 | doramapimod -0.045 | bafetinib 0.07 | [2] -0.019 | nilotinib 0.03 | [3] -0.014 | dasatinib 0.025 | [4] 0.004 | [5] -0.028 | quisinostat 0.035 | tipifarnib 0.001 | [6] -0.014 | [7] -0.073 | [8] 0.002

RHOC (UniProt P08134)
inactive: lapatinib 0.008 | pictilisib -0.013 | crizotinib -0.003 | [1] -0.161 | duvelisib -0.018 | gandotinib 0.028 | tozasertib 0.039 | doramapimod 0.071 | bafetinib 0.091 | [2] 0.071 | nilotinib 0.014 | [3] 0.014 | dasatinib -0.003 | [4] 0.011 | [5] -0.012 | quisinostat 0.015 | tipifarnib -0.026 | [6] -0.025 | [7] -0.012 | [8] 0.024

RNASEH2B (UniProt Q5TBB1)
inactive: lapatinib 0.001 | pictilisib 0.039 | crizotinib -0.049 | [1] 0.126 | duvelisib 0.03 | gandotinib -0.126 | tozasertib 0.055 | doramapimod 0.041 | bafetinib 0.027 | [2] -0.064 | nilotinib 0.024 | [3] 0.007 | dasatinib -0.024 | [4] -0.001 | [5] -0.011 | quisinostat -0.059 | tipifarnib -0.009 | [6] 0.037 | [7] 0.004 | [8] -0.015

RP2 (UniProt O75695)
inactive: lapatinib -0.022 | pictilisib -0.084 | crizotinib 0.022 | [1] 0.073 | duvelisib -0.062 | gandotinib -0.06 | tozasertib 0.052 | doramapimod -0.027 | bafetinib -0.055 | [2] -0.008 | nilotinib -0.007 | [3] -0.011 | dasatinib -0.028 | [4] -0.002 | [5] -0.014 | quisinostat 0.049 | tipifarnib 0 | [6] 0.007 | [7] 0.039 | [8] -0.043

RHOA (UniProt P61586)
active: [1] 0.345
inactive: lapatinib 0.009 | pictilisib 0.314 | crizotinib 0.035 | duvelisib -0.023 | gandotinib -0.058 | tozasertib -0.092 | doramapimod -0.036 | bafetinib 0.08 | [2] -0.138 | nilotinib -0.08 | [3] 0.104 | dasatinib 0.017 | [4] -0.008 | [5] -0.013 | quisinostat 0.167 | tipifarnib -0.021 | [6] -0.004 | [7] 0.008 | [8] -0.062

RPL10 (UniProt F8W7C6)
inactive: lapatinib -0.114 | pictilisib 0.005 | crizotinib -0.068 | [1] -0.212 | duvelisib 0.014 | gandotinib 0.017 | tozasertib -0.046 | doramapimod -0.013 | bafetinib -0.108 | [2] 0.11 | nilotinib -0.058 | [3] -0.033 | dasatinib 0.043 | [4] 0.021 | [5] -0.106 | quisinostat -0.104 | tipifarnib 0.155 | [6] 0.044 | [7] 0.086 | [8] 0.016

RNF141 (UniProt Q8WVD5)
inactive: lapatinib 0.051 | pictilisib -0.009 | crizotinib -0.005 | [1] -0.037 | duvelisib 0.021 | gandotinib 0.031 | tozasertib 0.001 | doramapimod 0.081 | bafetinib -0.051 | [2] 0.046 | nilotinib 0.01 | [3] -0.002 | dasatinib 0.061 | [4] 0.011 | [5] -0.067 | quisinostat -0.067 | tipifarnib 0.007 | [6] 0.028 | [7] -0.043 | [8] 0

RPL24 (UniProt P83731)
inactive: lapatinib -0.01 | pictilisib 0.041 | crizotinib 0.012 | [1] 0.041 | duvelisib 0.015 | gandotinib -0.016 | tozasertib -0.028 | doramapimod -0.012 | bafetinib 0.049 | [2] -0.002 | nilotinib 0.014 | [3] -0.026 | dasatinib 0.016 | [4] -0.002 | [5] -0.008 | quisinostat 0.04 | tipifarnib -0.01 | [6] 0 | [7] 0.003 | [8] -0.024
